Among the data in article PMC4361764, “TatBC-Independent TatA/Tat Substrate Interactions Contribute to Transport Efficiency” (PLoS ONE, 2015) are binding values, retold here.

The chains behind the UniProt entries cited, without tags or fusion partners. Where a name states a change or a piece, a line headed by the entry shows the natural chain unless it says otherwise.
UniProt P00260: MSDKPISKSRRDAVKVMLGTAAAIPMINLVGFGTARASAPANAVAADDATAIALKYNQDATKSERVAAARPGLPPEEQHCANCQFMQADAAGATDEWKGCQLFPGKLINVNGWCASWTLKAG

Results are given in words; binding and its absence hold for the method and conditions named. In cells and extracts the contact can be indirect.

The target in assay [1] is HiPIP-T50A precursor with C-terminal His6-tag (Allochromatium vinosum) (UniProt P00260). Briefly: pull-down; affinity co-purification without detergent: His6-tagged substrate made in E. coli MC4100 with non-recombinant TatA; cells disrupted, soluble fraction, Ni2+-affinity chromatography; co-elution of TatA seen by Western blot. Background: A western blot detects proteins with antibodies after separation by electrophoresis.

Assay [2] deals with HiPIP-T50D precursor with C-terminal His6-tag (Allochromatium vinosum) (UniProt P00260). Described as above.

B1: Strep-tagged TatA from Escherichia coli (natural protein, UniProt P69428 1-89, looked up)
chain: MGGISIWQLLIIAVIVVLLFGTKKLGSIGSDLGASIKGFKKAMSDDEPKQDKTSQDADFTAKTIADKQADTNQEQAKTEDAKRHDKEQV
notes: TatA of Escherichia coli; The soluble form is a large association of many protomers; also called TatA-strep; soluble TatA-strep; source: E. coli DADE tatA-strep-tatBC (single-copy, wild-type level): in crude soluble extract; or purified from the soluble fraction (Strep-Tactin, Superose 6); not shown: Strep-tag, C-terminal, kept
In the case of B1, the binding result in assay [1] and in assay [2] was “no binding” each time.
